The other results are listed elsewhere or left out. Values are raw readings; no control value is given beside them.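 In the initial screen, polymyxin B was used at a concentration that permeabilizes Salmonella's outer membrane but not its inner membrane. Maximum growth was set by DMSO wells with or without polymyxin B. Since plates varied, data were ranked per plate, and compounds giving the lowest OD600 advanced as hits.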
Test system: Salmonella enterica serovar Typhimurium SL1344
Experiment: bacterial growth OD600 after 18 h with compound and polymyxin B; higher = more bacterial growth (less inhibition)
Details: 50 µM, Mueller-Hinton broth

SMILES | bacterial growth OD600 (polymyxin B 1 µg/mL) | bacterial growth OD600 (polymyxin B 0.75 µg/mL)
O=C1OCCN1CCNc1ccc(-c2nc(Cc3ccc(F)cc3)no2)cn1 | 0.924 | –
Cc1csc(SCC(=O)N2CCc3c(cnc(C)c3CNC(=O)/C=C/c3cccs3)C2)n1 | – | 0.781
CCc1ccc(CN(C)C(=O)c2cc(COc3cncc(Cl)c3)on2)cc1 | 0.802 | –
O[C@@H]1CN(Cc2ccc(Cl)cc2)CC[C@H]1N1CCN(c2ccccn2)CC1 | – | 0.797
CCOC(=O)N1CCN(C(=O)c2cc(COc3cccc4cccnc34)on2)CC1 | 0.861 | –
O=C1CCC(CCC(=O)N2CCC(c3ccccc3Cl)C2)(Cc2cccs2)N1 (stereo unspecified) | – | 0.815
O=C(c1coc(COc2cccc(F)c2F)n1)N1CCCCCC1 | 0.678 | –
Cc1csc(SCC(=O)N2CCC(C(Cc3ccc(F)cc3F)N(C)C(=O)C3CC3)CC2)n1 (stereo unspecified) | – | 0.741
CCO[C@H]1[C@H](NC(=O)CC)c2ccccc2C12CCN(C(=O)c1cc3ccccc3oc1=O)CC2 | – | 0.789
COc1cccc(-c2cnc(-c3ccncc3)nc2C2CCN(Cc3c(C)[nH]c4ccccc34)CC2)c1 | – | 0.695
O=C(NCC1COCCO1)C1(N2CCCCC2)Cc2ccccc2C1 (stereo unspecified) | – | 0.725
O=C(NCc1ccon1)c1coc(COc2cccc(F)c2)n1 | 1.09 | –
Cc1cc(F)ccc1NC(=O)CCC1CCCN(Cc2cccc3c2OCO3)C1 (stereo unspecified) | 0.839 | –
O=C(NC1CCCN(CC2CCCCC2)C1)c1cccs1 (stereo unspecified) | 0.916 | –
COc1cc(CN2CCN(Cc3cn(C)nc3C)CC2CCO)cc(OC)c1 (stereo unspecified) | 0.909 | –
CCc1csc(CNC(=O)c2ccc(N3CCSCC3)nc2)n1 | – | 0.811
COc1ccc(CCN2CCC(CN(C)C(=O)c3ccc(F)cc3F)CC2)cc1 | 1.05 | –
COc1cccc(CCC2CCCN(C(C)=O)C2)c1 (stereo unspecified) | – | 0.854
O=C1CCC(CCNCc2cc3c(cc2Cl)OCO3)N1Cc1cccc(F)c1 (stereo unspecified) | – | 0.797
CN(C)S(=O)(=O)NC1CC(C)(C)Cc2nc(C(C)(C)C)ncc21 (stereo unspecified) | – | 0.843
COCCN1C(=O)CC(CC(=O)N(C)Cc2n[nH]c3c2CCCCC3)(c2ccccc2F)C1=O (stereo unspecified) | – | 0.801

3 entries from above, arranged by heavy-atom count, smallest number first.
SMILES | bacterial growth OD600 (polymyxin B 1 µg/mL) | bacterial growth OD600 (polymyxin B 0.75 µg/mL)
O=C(c1coc(COc2cccc(F)c2F)n1)N1CCCCCC1 | 0.678 | –
CCOC(=O)N1CCN(C(=O)c2cc(COc3cccc4cccnc34)on2)CC1 | 0.861 | –
COCCN1C(=O)CC(CC(=O)N(C)Cc2n[nH]c3c2CCCCC3)(c2ccccc2F)C1=O (stereo unspecified) | – | 0.801
